Assay results reported in PubChem BioAssay AID493014 (National Center for Advancing Translational Sciences (NCATS), 2011).
Out of some 340,000 compounds screened, about 170 (0.05%) were called active. The inconclusive results got no clear call from the source; some entries with a clear call stand among them for comparison. Calls come from the whole dose curve; as a rule, active = well fitted inhibition curve with a large enough effect in the signal ratio, with a control signal flat (not every such curve was filed as active); inconclusive = small, poorly fitted or top-dose-only effect, or effect the other way, or a change in a side signal; inactive = flat fitted curve, though single readings scatter; the % refers to the signal ratio. Potencies beside an inconclusive call are fits to weak or partial responses and may not hold up.

Assay: qHTS Assay to Find Inhibitors of Chronic Active B-Cell Receptor Signaling;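 for activity change, negative = inhibition: plate controls were basal doxycycline-induced cells for no effect and cells given 10 µM MG132 for full effect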
Settings: ABC-DLBCL IkBa-CBG/CBR reporter, luminescence ratio (green luciferase fused to IkBa over red control in TMD8 lymphoma cells), 4 h; activity change, negative = inhibition: at 46.1 µM (top of the series)
Summary of the method: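 Concentration-response series (up to 46 uM) were applied to TMD8 dual-reporter cells for 4 h at 37C with doxycycline. Green/red ratio, after filter-overlap correction, defined %Activity; red signal alone was normalised to basal cells and zero luminescence.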
Potency is the fitted concentration of half-maximal effect.

Row | Structure (SMILES) | activity change, negative = inhibition | Potency
1 | N#C/C(=C\c1ccc(Cl)cc1)c1nc(-c2ccco2)cs1 | inconclusive: 0.623% | –
2 | CCN(Cc1ccc(OC)c(F)c1)C(=O)CCl | inconclusive: -22.6% | –
3 | COc1ccc2cc(CN(CC3CCCO3)C(=S)NCc3ccco3)c(=O)[nH]c2c1 (stereo unspecified) | inconclusive: -14.1% | –
4 | CCOc1cccc(CNc2ccc(O)cc2)c1OCc1ccccc1Cl | inconclusive: 23% | –
5 | COc1ccc(NS(=O)(=O)c2cc(NC(=O)c3ccco3)ccc2N2CCCC2)cc1 | inactive: 0.547% | –
6 | Cc1ccc(C)c(S(=O)(=O)N2CCN(C(=O)CNC(=O)c3ccc4ccccc4c3)CC2)c1 | inactive: -4.14% | –
7 | Cc1cc(C)cc(NC(=O)c2cccc(NC3=NC4CS(=O)(=O)CC4S3)c2)c1 (stereo unspecified) | inconclusive: -20.7% | –
8 | CNC(=S)Nc1cc(OC)ccc1OC | inconclusive: -1.1% | –
9 | CC1CCC(C(C)C)C(OC(=O)C[n+]2cc(-c3ccc(Cl)cc3)n3c2CCC3)C1 (stereo unspecified) | inconclusive: 10.3% | –
10 | O=C(CNC(=O)c1ccc(Br)o1)Nc1cccc(-c2cnc3ccccc3n2)c1 | inconclusive: 5.49% | –
11 | COC(=O)C1=C(C)C(c2cccs2)NC(=O)N1C (stereo unspecified) | – | inconclusive: 3.66 µM [falling, partial curve]
12 | S=C(Nc1ccccc1)Nc1nc2ccccc2n1CCOc1ccc(Cl)cc1 | – | inconclusive: 29.1 µM [falling, single point]
13 | COc1cccc(NC(=O)Nc2ccc3nsnc3c2)c1 | – | inconclusive: 20.6 µM [falling, partial curve]
14 | COc1ccc(S(=O)(=O)Nc2ccc3c(c2)n(C)c(=O)n3C)cc1F | inconclusive: -23.4% | –
15 | O=S1(=O)CCO[C@H]2Cc3ccccc3[C@H]2N1Cc1ccccc1 | – | inconclusive: 14.1 µM [falling, single point]
16 | CCn1nnc(NC(=O)COc2cc(C)ccc2C(C)C)n1 | inconclusive: 4.61% | –
17 | CSc1nc2sc3c(c2c(=O)n1C)CCC3 | inconclusive: -0.765% | –
18 | N=C1C(c2ccc(Br)cc2)=C(O)C2CCc3ccccc3N12 (stereo unspecified) | inconclusive: -1.01% | –
19 | COc1ccc(/C=N/NC(=O)c2ccccc2O)cc1CN1CCOCC1 | inconclusive: 327% | –
20 | CN(C)C(C)(C)C#CCCCCC#CC(C)(C)N(C)C | – | inconclusive: 4.11 µM [falling, full curve, poor fit]
21 | CCCn1nc2cc(C(=O)NCc3ccccc3)ccc2c1OCC | inconclusive: 18% | –
22 | O=C(O)c1cc(S(=O)(=O)Nc2ccccc2Cc2ccccc2)ccc1Cl | inconclusive: 2.44% | –
23 | Cc1ccc(C2CC(c3ccc(Cl)cc3)=NNC2=O)cc1 (stereo unspecified) | inactive: 12.5% | –
24 | C=CCn1c(NCc2c[nH]c3ccccc23)nc2ccccc21 | inconclusive: -0.671% | –
25 | O=C(Nc1cccc(O)c1)c1cc(-c2cccs2)on1 | – | inconclusive: 5.62 µM [rising, single point]
26 | NC(=O)c1nsc(C(=O)N(c2ccccc2)C(C(=O)NCC2CCCO2)c2ccc(F)cc2)c1N (stereo unspecified) | inactive: 2.15% | –

Quoted at random: 2 records from the list
Row | Structure (SMILES) | activity change, negative = inhibition | Potency
8 | CNC(=S)Nc1cc(OC)ccc1OC | inconclusive: -1.1% | –
7 | Cc1cc(C)cc(NC(=O)c2cccc(NC3=NC4CS(=O)(=O)CC4S3)c2)c1 (stereo unspecified) | inconclusive: -20.7% | –

(more compounds)

Row | Structure (SMILES) | activity change, negative = inhibition | Potency
27 | CCN(/N=C/C=C/c1ccccc1)c1cc(=O)n(C)c(=O)[nH]1 | inconclusive: 6.03% | –
28 | CC(=O)c1ccc(-n2nnnc2SCC(=O)Nc2sc(C)c(C)c2C#N)cc1 | inconclusive: -0.741% | –
29 | C/C(O)=C(\N=Nc1cc(C)ccc1O)C(N)=O | – | inconclusive: 22.4 µM [falling, partial curve, poor fit]
30 | CC(/C=C/c1ccccc1F)=N\NC(=O)c1ccc(Cl)cc1 | – | inconclusive: 2.24 µM [falling, partial curve, poor fit]
31 | COc1ccc(-c2nnc(SCC(=O)Nc3ccc(C(C)=O)cc3)nc2-c2ccc(OC)cc2)cc1 | – | inconclusive: 35.5 µM [rising, single point]
32 | O=C(Nc1ccc(F)cc1F)NC1CCN(S(=O)(=O)c2ccc(F)cc2)CC1 | inconclusive: -3.25% | –
33 | COc1ccccc1/C=C/C(=O)OCC(=O)N1CCCCC1 | – | inconclusive: 18.4 µM [falling, partial curve]
34 | COC(=O)C1CCN(C(=O)CN2C(=O)NC(CC(C)C)C2=O)CC1 (stereo unspecified) | – | inconclusive: 29.1 µM [falling, partial curve, poor fit]
35 | CN(C)c1ccc(C(=O)c2ccc(O)cc2O)cc1 | – | inconclusive: 13 µM [falling, partial curve, poor fit]
36 | CCCC(C(=O)NCC1CCCO1)N(Cc1ccco1)C(=O)CNS(=O)(=O)c1ccc(F)cc1 (stereo unspecified) | inconclusive: 0.875% | –
37 | O=C(Nc1cccc(F)c1)c1ccc2c(c1)OCCO2 | – | inconclusive: 17.8 µM [falling, partial curve]
38 | CN(Cc1nc2ccccc2c(=O)[nH]1)C(=O)c1cc(C2CC2)nn1-c1ccccc1 | inconclusive: 9.34% | –
39 | C=CCN(c1ccccc1Cl)S(=O)(=O)c1cc(C(=O)N2CCCC2)ccc1Cl | inconclusive: -0.332% | –
40 | NC(=O)c1ccc(NC(=O)CSc2nnc(-c3cccnc3)n2Cc2ccco2)cc1 | inactive: 0.253% | –
41 | COc1ccccc1OCC(=O)O/N=C(\N)c1ccccn1 | – | inconclusive: 4.47 µM [rising, full curve, poor fit]
42 | COn1c(-c2ccc(Cl)cc2)nc2ccc(Cl)cc21 | inconclusive: 11.2% | –
43 | O=C(O)c1nc2ccccc2nc1C(=O)O | inconclusive: 17.3% | –
44 | CCCN(CC(=O)Nc1ccccc1C)C(=O)/C=C/c1cccs1 | – | inconclusive: 18.4 µM [falling, partial curve]
45 | COc1ccc(N(CC(=O)NCc2ccccc2OC)S(=O)(=O)c2ccc(C)cc2)cc1Cl | inconclusive: 6.44% | –
46 | O=S(=O)(c1cccc(Cl)c1Cl)N1CCCCC1 | inconclusive: -1.32% | –
47 | COc1ccc(CNCCC(c2ccc(OC)cc2)c2ccccc2OC)cc1 (stereo unspecified) | inconclusive: -13.1% | –
48 | CCN(CC)CCn1nc2c3c(cccc3c1=O)-c1ccccc1-2 | inconclusive: -2.02% | –
49 | O=C(O)Cc1sc(Nc2cccc3ccccc23)nc1-c1ccc(F)cc1 | – | inconclusive: 12.6 µM [falling, single point]
50 | O=C(Nc1ccc(Cl)c(Cl)c1)Nc1ccon1 | inactive: -16.2% | –
51 | Cc1ccc(N2C(=O)NC(C(F)(F)F)(C(F)(F)F)C3=C2CC(C)(C)CC3=O)cc1 | inactive: 0.316% | –
